## Assay results

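Luminescence from an EWS-FLI1 target-promoter (NR0B1) reporter, set against a CMV-promoter reporter, two days after silencing single genes in TC32 Ewing sarcoma cells.
Each siRNA was applied at 20 nM.
A z-score of the log NR0B1-over-CMV signal, less the median of siRNAs with the same seed; more negative means a stronger specific loss of the NR0B1 reporter.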

This is part of the screen; most of the strongest results are not listed here.
Sequences are the guide (antisense) strand, without overhang.

UAUCUGAACGCAUCAGUUU against MBNL3 read seed-corrected z-score 0.3199. Result for UUUCGAGUAUAUUCCAGAC against DSTYK was seed-corrected z-score 0.2799. UCAGUGUCCUCUGUUGAGG against HCFC1R1 read seed-corrected z-score 0.328. With UCCAUAGACACGUCAGUGU against KCNK9 the assay gave seed-corrected z-score 0.09223. For UAUAUUCUCAGCGUGUCUG against C15orf43 the result was seed-corrected z-score -0.235. Result for AUCUGGUACAUAUCCUUGC against AGXT was seed-corrected z-score 0.1135. For ACUUCUACGAUUUUGGUGC against SLFN13 the result was seed-corrected z-score -1.245. With AAUAUCUCCAAUUCGGUCG against ARHGEF28 the assay gave seed-corrected z-score -0.9296.

Result for UCAUAGAUGAGCUACAUCA against KRTAP4-4 was seed-corrected z-score -0.2186. AUAGUACUGAAGAUUAUCC against TUBGCP4 read seed-corrected z-score -0.5557. With UCCAUUAUCACUAAUGCCC against AKT1S1 the assay gave seed-corrected z-score -0.1957. For ACAGCUCUAAGUGUCAGUA against GOLGA8B the result was seed-corrected z-score -0.2312. UGAAGUAAGCACGAGGAUG against POLR3K read seed-corrected z-score 1.196. With UUGAGUAAAACCAAGUGAC against OTOG the assay gave seed-corrected z-score -0.1942. With UGCGGUUAAAGCUUGGGUG against IMMT the assay gave seed-corrected z-score -1.871. AAAACGAUGUAAACACUCC against RNF2 gave seed-corrected z-score -0.1652.

With UGAGAUAUAGGAAUACGGU against FOXA3 the assay gave seed-corrected z-score -0.699. UGCUUGAUGGCUCUCAGCU against CCDC153 gave seed-corrected z-score -0.1041. With UUAUUACCGAGUCACCUAC against TMEM171 the assay gave seed-corrected z-score 1.12. With AAGAUAUCAGCAUCCAUGC against FBF1 the assay gave seed-corrected z-score 0.5255. UUCUUUCCCACGCUCAGUC against LINC00460 gave seed-corrected z-score -0.3817. Result for AUAGAGACGCGUUCGAACG against PPIP5K1 was seed-corrected z-score 0.1003. UCCGGAUAUAGAUUUUCUC against NR2C2 read seed-corrected z-score -0.572. For UUGUUGUCAAUAAUGACUC against APH1B the result was seed-corrected z-score -1.171.

AAUGUACCUAGUAACCUUC against TDRD12 read seed-corrected z-score -0.4805. UUGGGAUGGAGCAUAGUCC against ENHO gave seed-corrected z-score 0.1042. AACCUUUCUUGCUCCAUCC against CLUAP1 read seed-corrected z-score 1.849. Result for UUGAGUGCCUGGUUGAAGU against BLOC1S1 was seed-corrected z-score 1.102. AGAGCGAUGAUGAUGGUGU against OR2Y1 gave seed-corrected z-score 0.9525. GCAGGUCACACACGUGAAG against FBLIM1 read seed-corrected z-score 0.07196. UAUCAGUAGAGAGUUGACC against ARHGAP29 gave seed-corrected z-score -0.8443. With UCUUGUGCAAAUGACUCUG against SHTN1 the assay gave seed-corrected z-score 0.4451.

UUGAGUGUGAGUUCUAUAA against ZIM2 read seed-corrected z-score 0.003869. With AAAAUUAAGGAGGCAUUGA against ZNF321P the assay gave seed-corrected z-score -0.1245. Result for UGCUUCCAAACAUAUAGCU against TNS4 was seed-corrected z-score 0.6098. UUAAUCACUAGGUCAAUGC against CPS1 read seed-corrected z-score -0.2151. UUCAUGGACUCUAAAGUGC against SPACA4 gave seed-corrected z-score -0.276. For UGCUGGAACACGUCGAUGG against SUMO3 the result was seed-corrected z-score -1.69. UCUUGGAAGGGUCCAAUCC against CRHBP gave seed-corrected z-score 0.6327. Result for ACCUUUUUCCGCUCCAUGC against DCAF4L1 was seed-corrected z-score -1.306.

UAGCCUCUCAUGUGGAUUC against LOC643916 gave seed-corrected z-score -0.1853. For UCUAGGAUCACCAUCAAGG against PRAMEF12 the result was seed-corrected z-score -0.5184. Result for UUCCUGAAUUCGGAGCUGC against TFE3 was seed-corrected z-score -0.2294. Result for UAGGGUCAUAGAGUCCUGG against CNIH1 was seed-corrected z-score -1.498. Result for UUCUCGAAGAAAUCUAUCC against LARP7 was seed-corrected z-score 0.3831. UGUCUGAUUAGUUCCAGGG against TTC8 read seed-corrected z-score -0.7664. UUUGACAUCCGGGCUUUCU against ARL14EPL gave seed-corrected z-score 0.3324. Result for UCUGCUCACACUGAACCUG against STC2 was seed-corrected z-score -0.3426.

UAACAUCUAGCUGUUGCUG against CLEC2B read seed-corrected z-score 0.3759. With AUAGGUAUGUACUUGUUCC against FRS2 the assay gave seed-corrected z-score 0.03466. With UAGAUAACAAUUGGGCCUG against TRIM42 the assay gave seed-corrected z-score -0.385.

For reference, 4 entries once more:

siRNA,gene,seed-corrected z-score
UGAAGUAAGCACGAGGAUG,POLR3K,1.196
AUAGGUAUGUACUUGUUCC,FRS2,0.03466
UUAUUACCGAGUCACCUAC,TMEM171,1.12
AUAGAGACGCGUUCGAACG,PPIP5K1,0.1003

Source: PubChem BioAssay AID1159506 (NCATS, 2015).